# In article PMC12624062:
# The chains behind the UniProt entries cited, without tags or fusion partners. Where a name states a change or a piece, a line headed by the entry shows the natural chain unless it says otherwise.
# UniProt Q9JMB7: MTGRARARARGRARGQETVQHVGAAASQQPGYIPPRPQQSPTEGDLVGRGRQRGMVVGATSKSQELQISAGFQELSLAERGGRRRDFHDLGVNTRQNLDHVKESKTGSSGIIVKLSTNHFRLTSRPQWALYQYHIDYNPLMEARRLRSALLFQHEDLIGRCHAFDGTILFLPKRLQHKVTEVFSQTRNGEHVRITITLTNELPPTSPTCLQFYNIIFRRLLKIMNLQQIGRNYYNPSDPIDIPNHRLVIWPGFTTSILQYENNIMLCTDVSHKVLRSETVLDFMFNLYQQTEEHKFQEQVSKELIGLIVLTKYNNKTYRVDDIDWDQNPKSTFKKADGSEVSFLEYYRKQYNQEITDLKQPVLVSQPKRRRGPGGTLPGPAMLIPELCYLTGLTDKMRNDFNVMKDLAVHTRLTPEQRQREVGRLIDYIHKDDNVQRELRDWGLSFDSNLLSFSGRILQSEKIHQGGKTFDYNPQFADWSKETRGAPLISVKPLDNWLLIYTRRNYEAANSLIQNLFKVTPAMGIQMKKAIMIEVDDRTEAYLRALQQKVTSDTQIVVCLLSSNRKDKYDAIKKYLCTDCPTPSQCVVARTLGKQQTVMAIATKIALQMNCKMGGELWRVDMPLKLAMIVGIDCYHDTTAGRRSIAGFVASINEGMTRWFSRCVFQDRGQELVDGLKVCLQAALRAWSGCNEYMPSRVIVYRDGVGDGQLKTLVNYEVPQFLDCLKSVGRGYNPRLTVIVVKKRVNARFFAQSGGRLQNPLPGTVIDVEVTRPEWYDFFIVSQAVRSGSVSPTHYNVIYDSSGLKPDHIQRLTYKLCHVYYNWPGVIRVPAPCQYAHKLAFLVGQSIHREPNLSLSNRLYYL
# Biological target: T1, ASZ1 (mouse) (UniProt Q8VD46)
# T1 sequence: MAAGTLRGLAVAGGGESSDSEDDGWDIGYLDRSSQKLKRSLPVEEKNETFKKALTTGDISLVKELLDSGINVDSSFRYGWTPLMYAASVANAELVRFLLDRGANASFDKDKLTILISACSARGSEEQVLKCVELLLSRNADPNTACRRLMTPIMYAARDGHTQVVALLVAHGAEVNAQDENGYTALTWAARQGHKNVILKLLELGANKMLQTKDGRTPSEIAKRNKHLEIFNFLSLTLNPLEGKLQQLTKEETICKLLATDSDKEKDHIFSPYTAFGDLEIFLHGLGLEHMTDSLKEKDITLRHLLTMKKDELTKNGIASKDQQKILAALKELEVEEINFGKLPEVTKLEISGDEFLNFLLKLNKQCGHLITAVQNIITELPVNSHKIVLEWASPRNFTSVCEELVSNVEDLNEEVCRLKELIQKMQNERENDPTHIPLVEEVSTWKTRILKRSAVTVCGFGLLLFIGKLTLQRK
# Assay: co-IP; 293T cells transiently transfected with tagged mouse proteins; lysis in 150 mM NaCl, 50 mM Tris-HCl pH 7.4, 1% Triton X-100, 1 mM EDTA; Protein A/G agarose beads and antibodies overnight at 4 °C; washes with 300 mM NaCl; Western blot for Flag, HA, GFP; some panels with the methyltransferase inhibitor MTA
row,binding,Substance
1,no binding,PIWIL2 N-terminal region (mouse) (domain or fragment)
2,no binding,PIWIL2 C-terminal region (mouse) (domain or fragment)

# Biological target: T2, TDRD1 (mouse) (UniProt Q99MV1)
# T2 sequence: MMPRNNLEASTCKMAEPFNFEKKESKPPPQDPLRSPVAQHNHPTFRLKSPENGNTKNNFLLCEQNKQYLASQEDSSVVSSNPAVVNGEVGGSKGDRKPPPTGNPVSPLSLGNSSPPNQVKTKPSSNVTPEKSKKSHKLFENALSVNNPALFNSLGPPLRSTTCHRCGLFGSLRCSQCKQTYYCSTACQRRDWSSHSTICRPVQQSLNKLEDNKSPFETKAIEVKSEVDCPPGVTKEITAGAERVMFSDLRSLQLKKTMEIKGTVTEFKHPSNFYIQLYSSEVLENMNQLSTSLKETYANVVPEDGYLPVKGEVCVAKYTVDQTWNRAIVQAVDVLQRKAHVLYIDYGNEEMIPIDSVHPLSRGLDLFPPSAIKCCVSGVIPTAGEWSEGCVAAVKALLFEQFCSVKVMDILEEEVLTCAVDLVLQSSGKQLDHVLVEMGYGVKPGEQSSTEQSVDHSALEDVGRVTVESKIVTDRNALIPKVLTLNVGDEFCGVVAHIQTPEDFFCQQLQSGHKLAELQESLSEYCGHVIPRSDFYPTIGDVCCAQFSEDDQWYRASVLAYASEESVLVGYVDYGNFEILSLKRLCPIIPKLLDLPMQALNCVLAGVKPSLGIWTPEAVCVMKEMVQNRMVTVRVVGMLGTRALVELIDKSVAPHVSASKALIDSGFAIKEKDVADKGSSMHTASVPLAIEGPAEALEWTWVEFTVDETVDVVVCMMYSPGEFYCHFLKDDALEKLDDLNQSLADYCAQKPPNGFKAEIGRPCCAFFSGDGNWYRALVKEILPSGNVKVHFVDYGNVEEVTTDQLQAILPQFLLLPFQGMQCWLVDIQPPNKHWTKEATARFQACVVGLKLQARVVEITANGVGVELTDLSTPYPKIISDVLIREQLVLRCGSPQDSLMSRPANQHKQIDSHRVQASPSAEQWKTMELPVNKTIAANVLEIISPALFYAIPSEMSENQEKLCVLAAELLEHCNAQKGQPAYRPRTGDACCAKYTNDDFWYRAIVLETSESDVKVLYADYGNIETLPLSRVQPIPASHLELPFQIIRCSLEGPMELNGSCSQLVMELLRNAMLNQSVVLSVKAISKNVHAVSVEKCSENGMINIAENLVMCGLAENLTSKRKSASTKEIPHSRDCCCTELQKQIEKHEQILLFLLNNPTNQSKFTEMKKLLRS
# Assay: as above
row,binding,Substance
1,binds,"truncated PIWIL1, C-terminal deleted (mouse) (domain or fragment)"
2,binds,"truncated PIWIL1, N-terminal deleted (mouse) (domain or fragment)"
3,binds,PIWIL1 N-terminal region (mouse) (domain or fragment)
4,binds,"truncated PIWIL1, middle region deleted (from UniProt Q9JMB7)"
5,binds,PIWIL1 RK mutation (from UniProt Q9JMB7)

# No constants are given. Whether binding was seen depends on the method and setting. Binding seen in cells or lysates may run through a third protein. For some of these results: A result given as binding can be weak or reduced; the word gives no strength.
